## Primary screen of a compound library

From ChEMBL document CHEMBL3988442, “University of Dundee, Small-Polar-MMV Screening Library” (2021).

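Assay on Mycobacterium tuberculosis, filed only as a heat shock assay from Cornell; the read-out is not stated. The concentration is filed as 10 mM, unlikely as a test dose, so the dose is not known. The record gives no direction; compounds that gave an IC50 in retests scored well above the rest, so higher reads as stronger inhibition. Of about 69,000 compounds tested this way, about 930 (1.4%) reached 50% or more in at least one test.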

The filed quantity is “Percent Effect” (%). The controls that fix the scale are not given in the record; negative values are as filed. The compounds are a random part of those screened.

| # | compound | effect |
|---|---|---|
| 1 | `O=C(CN1CCCC(c2ncc[nH]2)C1)NCC(F)(F)F` (stereo not shown) | -19.59% |
| 2 | `[H][C@]12CN(c3ccccn3)CCN1C[C@@H](CO)[C@@H]2c1ccccc1` | -5.457% |
| 3 | `COCC(=O)N1Cc2nc3c(C)c(-c4cccs4)nn3c(O)c2C1` | 11.03% |
| 4 | `CN1CCN(c2ccc(NS(=O)(=O)c3ccc(Br)s3)cc2C(=O)O)CC1` | -40.49% |
| 5 | `COCCc1noc(CN(C)c2nccc(C)n2)n1` | 14.99% |
| 6 | `CCN(Cc1ccc2cccc(O)c2n1)CC1CCCO1` (stereo not shown) | 84.2% |
| 7 | `[H][C@@]12CN(c3nc(C)cc(C)n3)C[C@]1([H])N(CCc1cccc(Cl)c1)C(=O)O2` | -43.87% |
| 8 | `Fc1ccc(-c2n[nH]cc2-c2ccnc(NCCN3CCCC3)n2)cc1` | -30.82% |
| 9 | `COCCN1CCOCC12CCN(C(=O)Cc1cccs1)CC2.O=C(O)C(F)(F)F` | 11.85% |
| 10 | `O=C(O)C(F)(F)F.[H][C@@]12CCN(C3CCOCC3)[C@]1([H])CC[C@@H](C(=O)NCc1cccs1)O2` | -47.82% |
| 11 | `CCN1C(=O)C(C#N)=C(C)/C(=C/C2=Cc3ccccc3OC2)C1=O` | -8.138% |
| 12 | `COCCn1cnnc1C1CCCN(c2cnccn2)C1` (stereo not shown) | -19.95% |
| 13 | `O=C(c1nnn(-c2ccccc2F)c1-c1ccccn1)N1CCSCC1` | 4.706% |
| 14 | `CCCc1nnc(NC2CCN(Cc3ccc(F)c(F)c3)CC2)o1` | 13.38% |
| 15 | `Cc1nc(CN2C(=O)COC3(CCN(CC4CC4)CC3)C2C)cs1.O=C(O)C(F)(F)F` (stereo not shown) | -37.17% |
| 16 | `Cc1cnn(CCC(=O)Nc2cccnc2N2CCC(CO)CC2)c1` | 23.22% |
| 17 | `CCc1cnc2c(c1NCc1ccncc1)c(=O)n(C)c(=O)n2C` | -0.738% |
| 18 | `COC[C@H]1CCCN1c1nccc(-c2cnn(-c3ccccc3C)c2)n1` | 57.5% |
| 19 | `OCCN1CCC(Cc2nccs2)CC1` | 6.175% |

Some entries from above, unchanged:

COC[C@H]1CCCN1c1nccc(-c2cnn(-c3ccccc3C)c2)n1 read 57.5%.
COCCN1CCOCC12CCN(C(=O)Cc1cccs1)CC2.O=C(O)C(F)(F)F read 11.85%.